What all share (assay): affinity purification with mass spectrometry
The target of test [1] is T1, TAP-Upf1-HD-Cter (208-971) (S. cerevisiae) (UniProt P30771).
T1 sequence: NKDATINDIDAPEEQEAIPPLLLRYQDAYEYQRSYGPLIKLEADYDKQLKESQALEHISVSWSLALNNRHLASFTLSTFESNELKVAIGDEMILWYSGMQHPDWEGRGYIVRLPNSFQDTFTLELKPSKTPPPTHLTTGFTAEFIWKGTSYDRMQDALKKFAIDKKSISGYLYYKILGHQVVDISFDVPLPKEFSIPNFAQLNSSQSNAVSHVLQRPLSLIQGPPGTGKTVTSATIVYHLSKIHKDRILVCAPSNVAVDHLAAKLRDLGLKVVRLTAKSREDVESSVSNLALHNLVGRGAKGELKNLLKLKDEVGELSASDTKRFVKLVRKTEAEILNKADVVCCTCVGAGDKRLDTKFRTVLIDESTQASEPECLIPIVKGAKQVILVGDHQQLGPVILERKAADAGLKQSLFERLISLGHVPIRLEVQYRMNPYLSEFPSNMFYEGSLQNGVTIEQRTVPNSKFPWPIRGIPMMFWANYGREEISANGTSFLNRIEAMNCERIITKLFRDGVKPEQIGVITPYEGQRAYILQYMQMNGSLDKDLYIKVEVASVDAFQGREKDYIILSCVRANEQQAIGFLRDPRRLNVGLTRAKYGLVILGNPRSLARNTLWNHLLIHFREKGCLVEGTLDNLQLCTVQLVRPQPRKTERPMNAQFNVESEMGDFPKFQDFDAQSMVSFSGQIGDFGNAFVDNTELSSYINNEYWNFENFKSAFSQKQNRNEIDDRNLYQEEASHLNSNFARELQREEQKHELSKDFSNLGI

A further test has as its target T2, Dcp1-TAP (S. cerevisiae) (UniProt Q12517).
T2 sequence: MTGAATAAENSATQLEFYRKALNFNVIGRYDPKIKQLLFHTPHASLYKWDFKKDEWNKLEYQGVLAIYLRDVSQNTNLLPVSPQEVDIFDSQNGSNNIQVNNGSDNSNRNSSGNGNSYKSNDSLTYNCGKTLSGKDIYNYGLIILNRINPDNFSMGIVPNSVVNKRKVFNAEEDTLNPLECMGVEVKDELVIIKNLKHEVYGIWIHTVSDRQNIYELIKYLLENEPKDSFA

In test [2] the target is T3, TAP-Upf1-CH (2-208) (S. cerevisiae) (UniProt P30771).
T3 sequence: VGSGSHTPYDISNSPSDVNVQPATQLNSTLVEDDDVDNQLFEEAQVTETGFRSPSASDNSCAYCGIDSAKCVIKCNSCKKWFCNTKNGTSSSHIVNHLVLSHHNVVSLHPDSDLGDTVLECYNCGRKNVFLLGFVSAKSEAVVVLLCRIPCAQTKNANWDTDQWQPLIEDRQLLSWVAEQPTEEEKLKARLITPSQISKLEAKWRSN

For test [3], the target named is T4, TAP-Upf1-HD (208-853) (S. cerevisiae) (UniProt P30771).
T4 sequence: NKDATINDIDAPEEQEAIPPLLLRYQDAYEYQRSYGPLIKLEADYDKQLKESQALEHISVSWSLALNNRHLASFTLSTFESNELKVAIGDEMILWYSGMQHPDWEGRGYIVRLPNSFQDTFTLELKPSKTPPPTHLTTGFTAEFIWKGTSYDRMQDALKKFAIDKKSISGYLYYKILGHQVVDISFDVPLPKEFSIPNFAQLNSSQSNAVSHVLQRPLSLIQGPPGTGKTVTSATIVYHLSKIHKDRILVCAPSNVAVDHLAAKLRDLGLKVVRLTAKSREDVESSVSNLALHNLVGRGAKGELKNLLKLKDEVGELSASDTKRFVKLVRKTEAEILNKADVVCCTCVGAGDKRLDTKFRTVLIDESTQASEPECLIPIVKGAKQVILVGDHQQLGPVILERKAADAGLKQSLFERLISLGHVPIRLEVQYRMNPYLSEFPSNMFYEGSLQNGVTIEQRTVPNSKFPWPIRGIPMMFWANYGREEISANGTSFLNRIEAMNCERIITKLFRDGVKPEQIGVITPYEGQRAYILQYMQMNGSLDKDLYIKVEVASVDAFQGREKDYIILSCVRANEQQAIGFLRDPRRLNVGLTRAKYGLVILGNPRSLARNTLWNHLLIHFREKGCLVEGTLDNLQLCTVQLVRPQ

Results on two molecules are retold here after article doi:10.1101/266833.

No constants are given. Whether binding was seen depends on the method and setting. In cells and extracts the contact can be indirect. A yes stands for co-enrichment or nearness to the bait. Other partners may have been found. For some assays here: No binding means not detected with the bait.

B1: Ebs1 (protein, UniProt Q03466 1-884)
chain: MEPSNTQKEDLPTAFNGIKSQLNSILKSNQLFQDYALLNGFLAFVHSKLNAAILTSIESQCGKSFAADLDSFDQSSISSILDFSWESVHYPIFKWFQMWRNYILFEKENKKQQTKFIDFRKMNSKMLKFFKTVQNFYVNVINTVYKKYDISVLLPKRIIQDLKLSDIENTTNVGDILAVKTFNSSSPLAHLIPTLFHRCLLFLGTAYRYKTLLEEISNKYSISNFKKSLDFFRLASLVLPSAGETYSQAGAIFLQTGNLGIAVFNFVKGMMTKMPSPVSIKNFGALMVDNKSSLNRSLHTTIMNTYLQESKGPRTPAKEILEFYFLGLFGSVWSPTSWRDDTKPNQLNNGIKLRHLENALYETMSARYLNNIKTIFHNLIITIGGFHLLLKRRSDVSAKTLKDLRSNELDYLNFAFKYIAHILNDIVKESWSENPEVSEILGMVRIINCWIKANPMVLQYSQSNLEFVNALAYLINDIVKKKPSPSFSITEHIPKRTYWFEEDLMVKGLSFVNFQLSDFDDYEKILEMDHSLDRLIGNPPLCDKLSASSEMLLRLQAVVNISSQLLQNNNCGVEWSDNKSRYIFNKKIGFKETVKNSMKTSKQSNEKAKLQRKNKPSTTNGSISMADLERQMRSSSLDSFSPTMGYSGSSVPMAPDTFNVKPSGTITGNKVNVELLKIELSGQNADGAITNISPGYSNAAISSSNSTDESSFDLNNILSSMQQKHAEKSFAKSMQGVNEQIPANDVCHQAQRPMQGGLYSSQQPSSMSSLNSAYQNASMPPSASMVSYPYPFLNQQGQGVFPPYNAQNLQWQSEAYSLKSMNFANPTWLGDQYQTSAPSSAYAQAQRQMFQQPMQQDVGKYMQFPFDAQSNTDSMRGNSRNNMF
Take B1: the binding entry (in test [1]; with Dcp1-TAP (S. cerevisiae)) was “binds” in each case.

B2: Nmd4 (protein, UniProt Q12129 1-218)
chain: MTQYNFIIDASAFEKGLGNIKRWCSDCTEAVTLNFYIPTFTLNELDFLQQRRKSFAARESLKFIDRLDDSKFANLKVFIEFPEVLDIILWSDVMEHNDSSGKINIAKLPKRLKNLLKSCIYKCYLEGNEGLHWFLISEDPQIREMAMQCNIPSCSIVDVDSILSKDMNDKSFRESEKFNNMMLKNGTKEESENGREIIRTNFNKTVYASRGTGELWSP
Regarding B2, the results for the binding entry in test [2], in test [1] and in test [3] were “no binding”, “binds” and “binds”, respectively.
